These results are taken from PMC10691163.

Results are given in words; binding and its absence hold for the method and conditions named. In cells and extracts the contact can be indirect. Binding calls can cover weak binding; strength is not graded here. Sequences can lack the tags named with a protein.

This assay has as its target T1, TRAF2 (pXJ40-HA-TRAF2) (UniProt Q12933).
T1 sequence: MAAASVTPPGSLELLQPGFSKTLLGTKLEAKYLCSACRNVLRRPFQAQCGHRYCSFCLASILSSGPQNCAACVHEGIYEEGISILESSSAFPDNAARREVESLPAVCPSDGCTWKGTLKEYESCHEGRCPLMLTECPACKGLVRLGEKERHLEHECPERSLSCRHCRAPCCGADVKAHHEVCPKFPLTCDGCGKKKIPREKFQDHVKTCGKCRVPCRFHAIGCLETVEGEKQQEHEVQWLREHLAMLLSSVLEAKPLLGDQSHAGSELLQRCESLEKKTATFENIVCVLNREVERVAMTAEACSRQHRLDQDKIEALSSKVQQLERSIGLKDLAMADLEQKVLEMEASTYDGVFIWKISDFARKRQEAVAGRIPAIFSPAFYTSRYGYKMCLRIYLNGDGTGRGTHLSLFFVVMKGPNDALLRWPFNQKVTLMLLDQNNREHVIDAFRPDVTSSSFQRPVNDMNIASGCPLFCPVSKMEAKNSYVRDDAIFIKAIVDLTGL
The assay can be described thus: co-IP; HEK-293T cells cotransfected with p3×Flag-Nsp10 and pXJ40-HA-TRAF2, cultured 36 h; lysate supernatant on anti-Flag or anti-HA magnetic beads, 3 h at room temperature, 5 washes with PBST; Western blot. On the technique in general: In western blotting, separated proteins are transferred to a membrane and probed.

On to “PRRSV nonstructural protein Nsp10 (p3×Flag-Nsp10)”, for which the binding result is recorded as “binds”.
